Test in all cases: co-IP
One assay concerns the target T1, Cep78-HA (mouse) (UniProt Q6IRU7).
T1 sequence: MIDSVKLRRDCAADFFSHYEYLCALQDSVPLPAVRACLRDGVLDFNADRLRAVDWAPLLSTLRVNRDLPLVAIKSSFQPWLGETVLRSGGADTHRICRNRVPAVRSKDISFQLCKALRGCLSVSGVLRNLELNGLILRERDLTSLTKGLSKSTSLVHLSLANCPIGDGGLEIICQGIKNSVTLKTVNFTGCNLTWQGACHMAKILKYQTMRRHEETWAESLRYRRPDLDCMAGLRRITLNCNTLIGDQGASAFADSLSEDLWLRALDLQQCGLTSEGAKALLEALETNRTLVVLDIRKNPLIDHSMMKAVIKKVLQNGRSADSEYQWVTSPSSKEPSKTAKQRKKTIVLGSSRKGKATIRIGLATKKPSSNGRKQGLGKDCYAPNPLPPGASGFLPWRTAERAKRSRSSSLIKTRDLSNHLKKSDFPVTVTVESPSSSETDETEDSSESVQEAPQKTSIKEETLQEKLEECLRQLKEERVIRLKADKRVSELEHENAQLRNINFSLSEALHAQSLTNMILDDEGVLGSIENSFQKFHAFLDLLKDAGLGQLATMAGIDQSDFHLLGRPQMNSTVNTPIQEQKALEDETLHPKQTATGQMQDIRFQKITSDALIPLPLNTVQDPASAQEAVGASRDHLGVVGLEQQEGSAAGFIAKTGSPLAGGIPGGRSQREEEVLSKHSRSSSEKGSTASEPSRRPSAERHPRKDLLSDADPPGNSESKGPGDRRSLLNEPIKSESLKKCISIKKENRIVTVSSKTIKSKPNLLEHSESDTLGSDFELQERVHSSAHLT

The chains behind the UniProt entries cited, without tags or fusion partners.
UniProt Q61025: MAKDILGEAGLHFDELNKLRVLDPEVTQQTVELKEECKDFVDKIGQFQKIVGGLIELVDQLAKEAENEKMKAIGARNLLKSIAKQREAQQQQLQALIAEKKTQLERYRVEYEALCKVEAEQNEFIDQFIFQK

For another assay, the target named is Ift20-HA (mouse) (UniProt Q61025).
Assay [1] has as its target Ift20 (endogenous, mouse testis) (mouse (endogenous in testis)) (UniProt Q61025).

No constants are given. Whether binding was seen depends on the method and setting. Binding seen in cells or lysates may run through a third protein. Some binding calls cover weakened binding; strength is not graded here. For some of these results: Tags and fused reporters may be left off the sequences shown.

Experimental findings from article doi:10.1101/2022.01.25.477668 are described below.

Take Ift20-Flag (from UniProt Q61025 1-132): the binding result with Cep78-HA (mouse) was “binds”.

B1: Ttc21a-Flag (protein, UniProt Q8C0S4 1-1314)
chain: MSSDDSSLMASIIYYSQEKYFHHVLQAANVGLERYSSDPALQFFRAYGILGEDHIHDAISELEGIQSHPDTSLCAVIALLSAHKSCDTIDIEAVQELESSLKEIRRSASSTALYYASLFLWFMGHHDKAREYVDHMLKVSSGSKEGYVLKGWVDLTSSKPHVVKKSIKYLEQGTQDTKDVLGLMGKATYFMTQQNFSGALEVANQVTLACSNFLPALVLKMKLFLARQDWDQTIETGQRILEKDENNIDAWQILAVHELVKEGNTDRAADRVRNLIKALETGEPHNPNLHLKKILVISRLCGRHQVVHRLVSGFLERIFMATPSCALVATELGYLFILHQQVKEACLWYKEAMKLEENRLAALAGSIWCQILQGQLEEAAHQLEFLKEVQQSLGKSELLVFLQALVAAKKQRLEQEATALLKEAVEVHFSSMQGLALSPEYFEKLDPLFLVCIAKEYLHFCPKQPRSPGQLVSPLLKQVAMILSPVVKVAPAMMEPLYVTAQVKFLSGELENAQSTLQRCLELDPTFVDAHLLMSQIYLAQGNFAMCSHCLELGVSHNFQVRDHPLYHFIKARALNKTGDYAEAIKTLKMIIKVPTSKAEEGRKSQSPSVRPSERASILLELVEALRLNGELHEATKIMQDAINEFSGTPEEMRITVANVDLALSKGNVDLALNMLRGITPKQPCYTEAKEKMASIYLHTRKDVRLYIGCYVELCEHLPGPHSSLLLGDAFMNIQEPEKALEVYDEAYRKNPHDASLVSRIGQAYVKTHQYAKAINYYEAAQKISGQDFLCCELAELLLKLKKYHKAEKVLKQALERDSGVKDIPSMINEVKCLLLLAKVYKSHKKEEVMETLNLALDLQSRILKRVPLEQSEMIPFQNQLAASICIQIGEHHLAEKDYDSALKSYKDALAYSPTDSKVVLELAHLYLLLGQLDLCEQRCAPLLEMEQTHERAAVMLADLMFRRQNYETAINLYHQVLEKAPDNFLVLNKLVDLLRRSGKLEEAPAFFELAKKVSSRVPLEPGFNYCQGIYFWHIGQPNEALRFLNKARKDSTWGQLATCYMVQICLNPDNEIVGGEAFESLVGDSNSASRKESQQHGVRTAEKLLREFYPHSESGQTQLRLLQNLCLLATREKANVEVALGAFIEMAQAEKDSIPALLAMAQAYILLKQVPKARTQLKRLAKVPWTVDEAEDLEKSWLLLADIYCQGGKFDLALELLRRCLQYNKSCCRAYEYMGFIMEKEQSYKDAATNYELAWKYSHQANPAIGFKLAFNYLKDKKFVDAIEVCHSVLTEHPKYPKIREEILEKAQGSLRP
B1: the binding entry with Cep78-HA (mouse) and with Ift20-HA (mouse) was “binds” throughout.

B2: Ttc21a (endogenous, mouse testis) (protein, UniProt Q8C0S4 1-1314)
chain: B1 chain
For B2, the binding entry in assay [1] is “binds”.
